Some of these results come from one statement about several compounds together.
What follows are compounds tested on Leptosphaeria nodorum (assay: In vivo test on Leptosphaeria nodorum (wheat glume blotch)). Conditions: dose of 110 ppm; wheat plants (Scipion variety), preventive spray 24 hours before contamination; grading 15 to 17 days after contamination, in comparison with control plants.

Row | SMILES | % of efficacy
1 | O=C(NCCCCc1ncc(C(F)(F)F)cc1Cl)c1ccccc1C(F)(F)F [Compound 1] | at least 60%
2 | O=C(NCCCCc1ncc(C(F)(F)F)cc1Cl)c1ccccc1Cl [Compound 2] | at least 60%
3 | O=C(NCCCCc1ncc(C(F)(F)F)cc1Cl)c1ccccc1I [Compound 3, N-{4-[3-chloro-5-(trifluoromethyl)pyridin-2-yl]butyl}-2-iodobenzamide] | at least 60%
